Assay results taken from publication PMC7883444.
Substitutions are numbered along the chain they refer to. Numbers in names are those of the source. These are yes or no findings as the source states them, for the method shown. In cells and extracts the contact can be indirect. Some binding calls cover weakened binding; strength is not graded here. For some assays here: Where a sequence is shown, tags or fusion partners need not be part of it.

Amino acid sequences for entries named in this document (tags omitted).
UniProt Q86TM6: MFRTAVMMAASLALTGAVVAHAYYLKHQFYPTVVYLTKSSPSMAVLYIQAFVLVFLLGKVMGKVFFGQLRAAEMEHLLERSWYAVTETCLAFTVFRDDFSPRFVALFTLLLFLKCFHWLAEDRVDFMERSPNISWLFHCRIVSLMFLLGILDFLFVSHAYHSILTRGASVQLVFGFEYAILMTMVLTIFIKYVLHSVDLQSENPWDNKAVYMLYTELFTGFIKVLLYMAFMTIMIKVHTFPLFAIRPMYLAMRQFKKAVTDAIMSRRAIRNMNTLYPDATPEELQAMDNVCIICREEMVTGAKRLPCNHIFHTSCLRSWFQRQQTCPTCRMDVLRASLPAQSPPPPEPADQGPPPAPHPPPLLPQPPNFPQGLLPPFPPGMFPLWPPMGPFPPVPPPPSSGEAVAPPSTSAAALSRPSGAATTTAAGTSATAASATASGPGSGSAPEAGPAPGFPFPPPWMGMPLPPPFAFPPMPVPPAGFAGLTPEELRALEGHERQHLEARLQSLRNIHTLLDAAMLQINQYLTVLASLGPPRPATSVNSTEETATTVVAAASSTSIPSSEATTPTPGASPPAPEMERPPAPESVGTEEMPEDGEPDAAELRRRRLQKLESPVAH

B1: platelet isoform of phosphofructokinase (PFKP) (enzyme, UniProt Q01813 1-784)
chain: MDADDSRAPKGSLRKFLEHLSGAGKAIGVLTSGGDAQGMNAAVRAVVRMGIYVGAKVYFIYEGYQGMVDGGSNIAEADWESVSSILQVGGTIIGSARCQAFRTREGRLKAACNLLQRGITNLCVIGGDGSLTGANLFRKEWSGLLEELARNGQIDKEAVQKYAYLNVVGMVGSIDNDFCGTDMTIGTDSALHRIIEVVDAIMTTAQSHQRTFVLEVMGRHCGYLALVSALACGADWVFLPESPPEEGWEEQMCVKLSENRARKKRLNIIIVAEGAIDTQNKPITSEKIKELVVTQLGYDTRVTILGHVQRGGTPSAFDRILASRMGVEAVIALLEATPDTPACVVSLNGNHAVRLPLMECVQMTQDVQKAMDERRFQDAVRLRGRSFAGNLNTYKRLAIKLPDDQIPKTNCNVAVINVGAPAAGMNAAVRSAVRVGIADGHRMLAIYDGFDGFAKGQIKEIGWTDVGGWTGQGGSILGTKRVLPGKYLEEIATQMRTHSINALLIIGGFEAYLGLLELSAAREKHEEFCVPMVMVPATVSNNVPGSDFSIGADTALNTITDTCDRIKQSASGTKRRVFIIETMGGYCGYLANMGGLAAGADAAYIFEEPFDIRDLQSNVEHLTEKMKTTIQRGLVLRNESCSENYTTDFIYQLYSEEGKGVFDCRKNVLGHMQQGGAPSPFDRNFGTKISARAMEWITAKLKEARGRGKKFTTDDSICVLGISKRNVIFQPVAELKKQTDFEHRIPKEQWWLKLRPLMKILAKYKASYDVSDSGQLEHVQPWSV
B2: WT Flag-PFKP (enzyme, UniProt Q01813 1-784)
chain: B1 chain
B3: Flag-PFKP K10R mutant (enzyme, UniProt Q01813 1-784)
chain: B1 chain with K10R
B4: Flag-PFKP S386A (enzyme, UniProt Q01813 1-784)
chain: B1 chain with S386A

Assays:
[1] = molecular target: HMG-CoA reductase degradation protein 1 (HRD1) (human (endogenous in MDA-MB-231)) (UniProt Q86TM6); test: co-IP; MDA-MB-231 cells infected with Ad-GFP or Ad-HRD1 for 48 h; lysate immunoprecipitated with antibody for target proteins and protein A/G agarose beads at 4 °C overnight, IgG as negative control; western blotting
[2] = molecular target: HRD1 overexpressed from Ad-HRD1 (UniProt Q86TM6); test: as above
[3] = molecular target: Myc-tagged HRD1 (UniProt Q86TM6); test: co-IP; PFKP-depleted MDA-MB-231 cells co-transfected with Myc-tagged HRD1 and Flag-PFKP (WT or mutant); lysates IP with anti-Myc antibody, western blotting with anti-Flag

binding [1] | binding [2] | binding [3] | Binder
binds | binds |  | B1
 |  | binds | B2
 |  | binds | B3
 |  | binds | B4
